PubChem BioAssay AID652272 | Drosophila RNAi Screening Center, 2013
Screen: 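Genes whose knock-down decreases or increases Hedgehog reporter output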 (primary screen). Cell system: Drosophila clone 8 (Cl8) cells. Reagents: long dsRNA against Drosophila genes. Measured: 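Plate reader light from a firefly reporter under a ptc promoter fragment that responds to Hedgehog, with Renilla light as transfection reference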. Reading the numbers: firefly Hh reporter signal: higher = more ptc reporter light; Renilla reference signal: higher = more Renilla control light. Hit rule: 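Called a hit if the two-replicate mean z-score lies below -2 or above +3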. Meaning of the calls: active = hit: reporter lowered or raised; inactive = not a hit.
In all, the deposit lists about 21,000 reagents; this is a random part of those that have a named target and a result. In the full data, 503 (2.4%) were called active. 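Raw plate light values, not normalised; calls rest on replicate z-scores that were not deposited; hits include reporter decreases as well as increases.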 The numbers tell different reagents against one gene apart. Names joined by + are all predicted targets of the reagent. The record does not give: the amount of reagent, the time to read-out.

Target gene	dsRNA no.	firefly Hh reporter signal, replicate 1	firefly Hh reporter signal, replicate 2	firefly Hh reporter signal, replicate 3	Renilla reference signal, replicate 1	Renilla reference signal, replicate 2	Call
car (carnation)	1	1.65e5	1.43e5		3562	3640	inactive
l(3)07882 (lethal (3) 07882)	1	1.20e5	1.13e5		5706	4726	inactive
CG18746	1	80373	1.35e5		3371	3708	inactive
prd1 (pruning defect 1)	1	1.04e5	95333		3138	2855	inactive
slv (saliva)	1	64096	45685		1377	3716	inactive
Rfx	1	50967	87460		2092	2423	inactive
CG9855	1	1.68e5	6.93e5	1.01e5	6332	43706	inactive
Eato (Engulfment ABC Transporter in the ovary)	1	1.25e5	1.26e5		4743	4976	inactive
Eato (Engulfment ABC Transporter in the ovary)	2	74867	37863		2145	3385	inactive
CG13083	1	75792	40516		1812	3328	inactive
Setd3 (SET domain containing 3)	1	71238	2.11e5		2242	7514	inactive
Setd3 (SET domain containing 3)	2	69333	3.28e5		2362	9363	inactive
rg (rugose)	1	6.49e5	2.93e5		36800	5644	inactive
rg (rugose)	2	71067	1.15e5		1666	3093	inactive
rg (rugose)	3	95881	2.86e5		3634	10488	inactive
CG14929	1	93123	75320		2864	5856	inactive
CG14451	1	71322	96752		2656	2363	inactive
CG12691	1	74572	1.41e5		2273	5184	inactive
CG11251	1	84989	37098	42114	1792	2870	inactive
unk (unkempt)	1	1.83e5	1.18e5		7338	4425	inactive
CG5214	1	93049	4.96e5	1.51e5	3648	3040	inactive
Egm (Enigma)	1	1.73e5	1.08e5		6433	4180	inactive
Alp1 (Alkaline phosphatase 1)	1	95121	1.21e5		3888	4128	inactive
Hmbs (Hydroxymethylbilane synthase)	1	1.06e5	76227		5041	3058	inactive
TwdlW (TweedleW)	1	66964	56947		1419	4343	inactive
CG9171	1	1.96e5	1.26e5		6980	5425	inactive
CG13428	1	1.40e5	53656		3632	304	inactive
snsl (snustorr snarlik)	1	1.32e5	55281		3347	5560	inactive
CG31010	1	5.54e5	2.37e5		27276	4900	inactive
ADD1 (ADD domain-containing protein 1)	1	59200	49315		2553	1725	inactive
CG43244	1	1.45e5	2.34e5		3735	11082	inactive
CG34135 + Nasp + CG11768	1	57011	71856		2304	4068	inactive
CG34135 + Nasp + CG11768	2	50440	59456		2329	7289	inactive
CG5746	1	1.49e5	97858		5677	3552	inactive
Patj	1	92848	63504		4837	3104	inactive
CG13436	1	1.07e5	42452		3440	2733	inactive
edl (ETS-domain lacking)	1	99692	72432		4832	3098	inactive
Arl8 (ADP ribosylation factor-like 8)	1	1.04e5	1.57e5		4424	4451	inactive
Abcd1 (ATP binding cassette subfamily D member 1)	1	1.82e5	1.01e5		3782	4148	inactive
plu (plutonium)	1	67357	41208		1888	2917	inactive
ApepP (Aminopeptidase P)	1	76448	61826		2731	2278	inactive
CG42613	1	39434	1.22e5		9090	3834	inactive
CG42613	2	6.23e5	1.33e5		29223	4000	inactive
CG42613	3	1.27e5	80180		2903	3031	inactive
Dgkepsilon (Diacyl glycerol kinase epsilon)	1	72503	63800		3270	2448	inactive
Tango4 (Transport and Golgi organization 4)	1	61789	44903		2054	1557	inactive
CG12375	1	65441	60706		2785	2504	inactive
CG15594	1	1.08e5	1.21e5		4001	3488	inactive
CG9826	1	81155	60043		1339	5709	inactive
CG6006	1	48301	2.04e5		11572	3240	inactive
CG6006	2	1.11e5	83357		4185	3152	inactive
Vps26 (Vacuolar protein sorting 26)	1	86061	63771		2454	2297	inactive
koi (klaroid)	1	80204	65744		1837	4584	inactive
koi (klaroid)	2	1.04e5	64372		2626	4811	inactive
CG9150	1	1.14e5	37308		2681	3633	inactive
CG4440	1	1.18e5	45841		3366	4052	inactive
Su(P) (Suppressor of ref(2)P sterility)	1	1.17e5			3529	5997	inactive
